Measured values: PubChem BioAssay (EPA / NIEHS)
Where “and” joins values, the source holds several entries; their conditions need not be identical. Equal values may be shown once. Inconclusive means that the source gave no clear call. Such entries were picked first, then a sample of the others. Potencies of inconclusive entries are doubtful fits and often do not repeat. Some structures have more than one record in an assay (separate samples or runs), and their calls can disagree. Calls of active or inactive are those of the source. The calls were made as follows: active = hit-call score of the fitted dose curve at least 0.9, where 1 is the maximum; inconclusive = response in the unintended direction; inactive = score below 0.9.

Amino acid sequences for entries named in this document (tags omitted).
UniProt P04637, whole entry, looked up: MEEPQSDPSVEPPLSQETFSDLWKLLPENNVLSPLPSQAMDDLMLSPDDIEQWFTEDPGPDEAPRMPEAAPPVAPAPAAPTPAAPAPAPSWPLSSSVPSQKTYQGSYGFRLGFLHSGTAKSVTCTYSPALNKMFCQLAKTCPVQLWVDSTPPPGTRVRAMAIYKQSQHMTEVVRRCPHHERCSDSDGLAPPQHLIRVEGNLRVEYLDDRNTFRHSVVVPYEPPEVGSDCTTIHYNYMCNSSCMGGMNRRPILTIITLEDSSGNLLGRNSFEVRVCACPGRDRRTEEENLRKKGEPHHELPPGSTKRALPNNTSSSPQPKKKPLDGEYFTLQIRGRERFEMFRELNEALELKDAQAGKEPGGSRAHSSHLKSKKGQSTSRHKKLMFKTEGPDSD

These compounds were tested against Cellular tumor antigen p53 (Homo sapiens) (UniProt P04637) (assay: TOX21_p53_BLA_p5_ratio: Tox21 HCT-116 p53 Agonism Beta-lactamase Assay, Ratio, Phase 5 (AID 2283599)).
Procedure, shortened: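 HCT-116 cells carrying a p53-inducible beta-lactamase reporter were seeded at 4000 cells/well and dosed after 5 h with compound in DMSO (217-fold dilution). After 16 h at 37C, CCF4-AM substrate was added for 2 h, and the 460/530 nm emission ratio was scored as gain-of-signal versus DMSO.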

Structure (SMILES) | AC50 | outcome
SCCc1cnccn1 | active: 35.7 µM | 
CCCCCCCCOC(C)=O | inconclusive: 46.1 µM | 
CNCc1ccc(NC(=O)c2c[nH]c3c2C(=O)CCC3)cc1 | inconclusive: 46.1 µM | 
Cc1cccc(N(C)C(=S)Oc2ccc3ccccc3c2)c1 |  | inactive
CN(N=O)C(=O)N[C@@H]1[C@@H](O)[C@H](O)[C@@H](CO)O[C@@H]1O | inconclusive: 18.8 µM | 
O=C1CCCC=CCCCCCCCCCC1 | inconclusive: 46.1 µM | 
Clc1ccc(Cl)c(Cl)c1Cl |  | inactive
CCCC1CCC(=O)O1 (centres undefined) | inconclusive: 74.1 µM | 
CC(C)(Oc1ccc(C2CC2(Cl)Cl)cc1)C(=O)O (centres undefined) | inconclusive: 46.1 µM and inconclusive: 44.6 µM | 
CCCCCCCCCCCCCO |  | inactive
CCCCCCCCCCCCCCCCCC[N+](C)(C)C | active: 75 µM | 
COC(C(=O)O)c1ccccc1 (centres undefined) | inconclusive: 74.3 µM | 
C=CCOC(=O)CCCCCC | inconclusive: 46.1 µM | 
O=C(CS)OCCOC(=O)CS | active: 58.3 µM | 
CC=Cc1ccc(O)c(OC)c1 | inconclusive: 46.1 µM | 
Nc1ccc(N)c2c1C(=O)c1ccccc1C2=O |  | inactive
CC(C)OB(OC(C)C)OC(C)C | inconclusive: 46.1 µM and inconclusive: 46.2 µM | 
CCSC(=O)N(CC(C)C)CC(C)C |  | inactive
CCOc1ccc(NC(C)=O)cc1 | inconclusive: 23 µM | 

3 entries out of the list, ordered by formula weight, ascending.
Structure (SMILES) | AC50 | outcome
CCCCCCCCCCCCCO |  | inactive
CCSC(=O)N(CC(C)C)CC(C)C |  | inactive
Cc1cccc(N(C)C(=S)Oc2ccc3ccccc3c2)c1 |  | inactive

The results go on:

Structure (SMILES) | AC50 | outcome
COC(=O)CCCC(=O)OC |  | inactive
CC(C)C1CCC(O)CC1 (centres undefined) | inconclusive: 46.1 µM | 
CCCCCC1CCCC(=O)O1 (centres undefined) |  | inactive
CCCSc1ccc2nc(NC(=O)OC)[nH]c2c1 | active: 373 nM and active: 193 nM | 
CCCC(C)C(=O)OCC (centres undefined) | inconclusive: 46.1 µM | 
CC=CC=CCOC(=O)C(C)C | inconclusive: 83.9 µM | 
CC1(C)C(=O)N(Br)C(=O)N1Cl |  | inactive
CC(C)CC(C)(O)C#CC(C)(O)CC(C)C (centres undefined) | inconclusive: 46.1 µM and inconclusive: 45.3 µM | 
CC(C)CC(=O)CC(C)CC(C)C (centres undefined) | inconclusive: 35.2 µM | 
c1ccc(CNc2ncnc3nc[nH]c23)cc1 | inconclusive: 22 µM | 
CC1(C)O[C@@H]2[C@@H](CO[C@@]3(COS(N)(=O)=O)OC(C)(C)O[C@@H]23)O1 | inconclusive: 46.1 µM and inconclusive: 23 µM | 
O=C1O[C@H]([C@@H](O)CO)C(O)=C1O | inconclusive: 23 µM | 
c1ccc(CNCc2ccccc2)cc1 | inconclusive: 46.1 µM | 
NC(=O)c1ccc([N+](=O)[O-])cc1Cl | inconclusive: 46.1 µM | 
CC(=O)Nc1ccccc1O | inconclusive: 46.1 µM | 
CCOC(=O)N1CCC(=C2c3ccc(Cl)cc3CCc3cccnc32)CC1 | active: 49.6 µM | 
CCCCCCOc1ccc(O)cc1 | active: 52.4 µM | 
Cc1cc(=O)oc2cc(N(C)C)ccc12 | active: 47.9 µM | 
O=C(OCCOCCOC(=O)c1ccccc1)c1ccccc1 | inconclusive: 46.1 µM | 
